The effect of the compound repeats well; differences between the knockouts mostly do not.
Tested on: MDA-MB-231
Experiment: relative cell number vs DMSO control (72 h) (% of DMSO); higher = less growth inhibition (more cells)
Protocol: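 QMAP-Seq: a pool of 5 breast cancer cell lines (ZR-75-1, SKBR3, HCC-38, MDA-MB-231, BT-20), each carrying 12 doxycycline-inducible Cas9 sgRNA perturbations (11 knockouts plus non-targeting sgNT), was treated with compounds for 72 h at four 10-fold doses (10 nM-10 uM or 1 nM-1 uM range). Barcodes were amplified and sequenced, and cell number was interpolated from 293T spike-in standard curves. The result is expressed as % of the median of DMSO wells. Two biological replicates.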

COCC[n+]1c2c(n(Cc3cnccn3)c1C)C(=O)c1ccccc1C2=O [YM155]
Conditions | relative cell number
sgRNA knockout: sgATF3, 1 nM | 75.3
sgRNA knockout: sgATF3, 10 nM | 19.9
sgRNA knockout: sgATF3, 100 nM | 6.11
sgRNA knockout: sgATF3, 1000 nM | 4.11
sgRNA knockout: sgATF4, 1 nM | 49.7
sgRNA knockout: sgATF4, 10 nM | 35.6
sgRNA knockout: sgATF4, 100 nM | 4.83
sgRNA knockout: sgATF4, 1000 nM | 8.09
sgRNA knockout: sgATF6, 1 nM | 54
sgRNA knockout: sgATF6, 10 nM | 32.8
sgRNA knockout: sgATF6, 100 nM | 9.02
sgRNA knockout: sgATF6, 1000 nM | 6.24
sgRNA knockout: sgATG7, 1 nM | 55.21
sgRNA knockout: sgATG7, 10 nM | 23.4
sgRNA knockout: sgATG7, 100 nM | 9.38
sgRNA knockout: sgATG7, 1000 nM | 5.23
sgRNA knockout: sgERN1, 1 nM | 58.5
sgRNA knockout: sgERN1, 10 nM | 22.6
sgRNA knockout: sgERN1, 100 nM | 4.82
sgRNA knockout: sgERN1, 1000 nM | 4.88
sgRNA knockout: sgHSF1, 1 nM | 63.8
sgRNA knockout: sgHSF1, 10 nM | 26.1
sgRNA knockout: sgHSF1, 100 nM | 4.66
sgRNA knockout: sgHSF1, 1000 nM | 6.86
sgRNA knockout: sgHSF2, 1 nM | 68.4
sgRNA knockout: sgHSF2, 10 nM | 17.4
sgRNA knockout: sgHSF2, 100 nM | 8.92
sgRNA knockout: sgHSF2, 1000 nM | 5.33
sgRNA knockout: sgKEAP1, 1 nM | 93.574
sgRNA knockout: sgKEAP1, 10 nM | 26.7
sgRNA knockout: sgKEAP1, 100 nM | 9.12
sgRNA knockout: sgKEAP1, 1000 nM | 6.27
sgRNA knockout: sgNFE2L2, 1 nM | 63.4
sgRNA knockout: sgNFE2L2, 10 nM | 17.2
sgRNA knockout: sgNFE2L2, 100 nM | 5.13
sgRNA knockout: sgNFE2L2, 1000 nM | 6.63
sgRNA knockout: sgSLC35F2, 1 nM | 97.4
sgRNA knockout: sgSLC35F2, 10 nM | 119
sgRNA knockout: sgSLC35F2, 100 nM | 66.8
sgRNA knockout: sgSLC35F2, 1000 nM | 5.56
sgRNA knockout: sgXBP1, 1 nM | 64.6
sgRNA knockout: sgXBP1, 10 nM | 19.6
sgRNA knockout: sgXBP1, 100 nM | 4.91
sgRNA knockout: sgXBP1, 1000 nM | 5.15

FC(F)c1nc2ccccc2n1-c1nc(N2CCOCC2)nc(N2CCOCC2)n1 [ZSTK474]
Conditions | relative cell number
sgRNA knockout: sgATF3, 10 nM | 108
sgRNA knockout: sgATF3, 100 nM | 82.52
sgRNA knockout: sgATF3, 1000 nM | 81.6
sgRNA knockout: sgATF3, 10000 nM | 59.4
sgRNA knockout: sgATF4, 10 nM | 101
sgRNA knockout: sgATF4, 100 nM | 120
sgRNA knockout: sgATF4, 1000 nM | 81.2
sgRNA knockout: sgATF4, 10000 nM | 66.8
sgRNA knockout: sgATF6, 10 nM | 108
sgRNA knockout: sgATF6, 100 nM | 115
sgRNA knockout: sgATF6, 1000 nM | 81.9
sgRNA knockout: sgATF6, 10000 nM | 76.4
sgRNA knockout: sgATG7, 10 nM | 90.3
sgRNA knockout: sgATG7, 100 nM | 99.39
sgRNA knockout: sgATG7, 1000 nM | 81
sgRNA knockout: sgATG7, 10000 nM | 75.2
sgRNA knockout: sgERN1, 10 nM | 80.9
sgRNA knockout: sgERN1, 100 nM | 115
sgRNA knockout: sgERN1, 1000 nM | 88.2
sgRNA knockout: sgERN1, 10000 nM | 63.4
sgRNA knockout: sgHSF1, 10 nM | 94.4
sgRNA knockout: sgHSF1, 100 nM | 90
sgRNA knockout: sgHSF1, 1000 nM | 70
sgRNA knockout: sgHSF1, 10000 nM | 67.6
sgRNA knockout: sgHSF2, 10 nM | 82.8
sgRNA knockout: sgHSF2, 100 nM | 111
sgRNA knockout: sgHSF2, 1000 nM | 77.5
sgRNA knockout: sgHSF2, 10000 nM | 62.4
sgRNA knockout: sgKEAP1, 10 nM | 100
sgRNA knockout: sgKEAP1, 100 nM | 122
sgRNA knockout: sgKEAP1, 1000 nM | 96.9
sgRNA knockout: sgKEAP1, 10000 nM | 61.2
sgRNA knockout: sgNFE2L2, 10 nM | 92
sgRNA knockout: sgNFE2L2, 100 nM | 96.9
sgRNA knockout: sgNFE2L2, 1000 nM | 67.25
sgRNA knockout: sgNFE2L2, 10000 nM | 62.5
sgRNA knockout: sgSLC35F2, 10 nM | 71.3
sgRNA knockout: sgSLC35F2, 100 nM | 78.2
sgRNA knockout: sgSLC35F2, 1000 nM | 82.5
sgRNA knockout: sgSLC35F2, 10000 nM | 67.7
sgRNA knockout: sgXBP1, 10 nM | 112
sgRNA knockout: sgXBP1, 100 nM | 115
sgRNA knockout: sgXBP1, 1000 nM | 84.8
sgRNA knockout: sgXBP1, 10000 nM | 58.8

O=c1ncccn1[C@@H]1O[C@H](CO)[C@@H](O)[C@H]1O [Zebularine]
Conditions | relative cell number
sgRNA knockout: sgATF3, 10 nM | 111
sgRNA knockout: sgATF3, 100 nM | 96.9
sgRNA knockout: sgATF3, 1000 nM | 82
sgRNA knockout: sgATF3, 10000 nM | 118
sgRNA knockout: sgATF4, 10 nM | 100
sgRNA knockout: sgATF4, 100 nM | 62.1
sgRNA knockout: sgATF4, 1000 nM | 86.1
sgRNA knockout: sgATF4, 10000 nM | 92.1
sgRNA knockout: sgATF6, 10 nM | 99.7
sgRNA knockout: sgATF6, 100 nM | 119
sgRNA knockout: sgATF6, 1000 nM | 126
sgRNA knockout: sgATF6, 10000 nM | 114
sgRNA knockout: sgATG7, 10 nM | 112
sgRNA knockout: sgATG7, 100 nM | 116
sgRNA knockout: sgATG7, 1000 nM | 102
sgRNA knockout: sgATG7, 10000 nM | 108
sgRNA knockout: sgERN1, 10 nM | 108
sgRNA knockout: sgERN1, 100 nM | 97.5
sgRNA knockout: sgERN1, 1000 nM | 100
sgRNA knockout: sgERN1, 10000 nM | 115
sgRNA knockout: sgHSF1, 10 nM | 115
sgRNA knockout: sgHSF1, 100 nM | 130
sgRNA knockout: sgHSF1, 1000 nM | 79
sgRNA knockout: sgHSF1, 10000 nM | 103
sgRNA knockout: sgHSF2, 10 nM | 105
sgRNA knockout: sgHSF2, 100 nM | 85.4
sgRNA knockout: sgHSF2, 1000 nM | 94.4
sgRNA knockout: sgHSF2, 10000 nM | 102
sgRNA knockout: sgKEAP1, 10 nM | 104
sgRNA knockout: sgKEAP1, 100 nM | 109
sgRNA knockout: sgKEAP1, 1000 nM | 91.7
sgRNA knockout: sgKEAP1, 10000 nM | 84.3
sgRNA knockout: sgNFE2L2, 10 nM | 128
sgRNA knockout: sgNFE2L2, 100 nM | 91.2
sgRNA knockout: sgNFE2L2, 1000 nM | 95.7
sgRNA knockout: sgNFE2L2, 10000 nM | 101
sgRNA knockout: sgSLC35F2, 10 nM | 99.6
sgRNA knockout: sgSLC35F2, 100 nM | 89.8
sgRNA knockout: sgSLC35F2, 1000 nM | 101
sgRNA knockout: sgSLC35F2, 10000 nM | 106
sgRNA knockout: sgXBP1, 10 nM | 125
sgRNA knockout: sgXBP1, 100 nM | 98.9
sgRNA knockout: sgXBP1, 1000 nM | 90.6
sgRNA knockout: sgXBP1, 10000 nM | 92.3

— the supplement of paper PMC7661543
